Taken from: PubChem BioAssay AID1259424 (University of Nebraska Medical Center, 2018)

- Purpose: 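Seek colon cancer survival genes behaving like KSR1, using a six-gene signature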 (primary screen)
- System: human HCT116 colon cancer cells
- Knock-down reagent: siRNA pool against human genes, 50 nM
- Measured: 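Log2 levels of six mRNAs (branched-DNA multiplex), adjusted by two reference genes and the non-targeting median, then scored against the average KSR1 knockdown pattern as Pearson r and euclidean distance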
- Reading the numbers: mean correlation with KSR1 profile and KSR1 correlation: higher = expression change more like KSR1 knockdown; mean distance from KSR1 profile: higher = expression change less like KSR1 knockdown
The deposit covers about 14,000 reagents; shown is a part drawn at random. 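Higher correlation or smaller distance means closer resemblance to KSR1 loss; control wells, including KSR1 knockdowns, recur on many plates.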 Some reagents were tested in more than one well and are listed for each. Not all columns of the deposit are shown. Not given: the time to read-out.

Gene | mean correlation with KSR1 profile | mean distance from KSR1 profile | KSR1 correlation, replicate 1
SLC29A2 (GeneID 3177) | -0.326 | 4.14 | -0.378
ELMOD3 (GeneID 84173) | -0.341 | 3.26 | -0.287
MKRN4P (GeneID 7682) | 0.13 | 1.44 | 0.389
LETMD1 (GeneID 25875) | -0.386 | 2 | -0.412
MIP (GeneID 4284) | 0.349 | 1.44 | 0.468
ATP8A1 (GeneID 10396) | -0.131 | 2.92 | -0.106
EAF1 (GeneID 85403) | -0.00208 | 3.72 | -0.0469
WDPCP (GeneID 51057) | -0.412 | 2.33 | -0.39
MBD1 (GeneID 4152) | 0.000256 | 1.63 | 0.431
ZNF285 (GeneID 26974) | -0.102 | 2.59 | -0.519
MT1L (GeneID 4500) | -0.946 | 2.07 | -0.525
PGM3 (GeneID 5238) | 0.226 | 1.24 | 0.379
BAX (GeneID 581) | 0.34 | 1.59 | 0.142
CD69 (GeneID 969) | 0.312 | 1.47 | 0.501
FZD4 (GeneID 8322) | 0.203 | 2.45 | 0.33
ADCY6 (GeneID 112) | -0.625 | 2.01 | -0.569
ITFG1 (GeneID 81533) | 0.432 | 2.34 | 0.414
THY1 (GeneID 7070) | -0.614 | 3.32 | -0.588
AIM2 (GeneID 9447) | 0.258 | 1.52 | 0.554
PROK2 (GeneID 60675) | 0.688 | 1.82 | 0.576
DEFA1 (GeneID 1667) | 0.195 | 1.97 | 0.204

No new results follow: 10 of the entries above.
Gene | mean correlation with KSR1 profile | mean distance from KSR1 profile | KSR1 correlation, replicate 1
MT1L (GeneID 4500) | -0.946 | 2.07 | -0.525
PGM3 (GeneID 5238) | 0.226 | 1.24 | 0.379
BAX (GeneID 581) | 0.34 | 1.59 | 0.142
CD69 (GeneID 969) | 0.312 | 1.47 | 0.501
FZD4 (GeneID 8322) | 0.203 | 2.45 | 0.33
ADCY6 (GeneID 112) | -0.625 | 2.01 | -0.569
ITFG1 (GeneID 81533) | 0.432 | 2.34 | 0.414
THY1 (GeneID 7070) | -0.614 | 3.32 | -0.588
AIM2 (GeneID 9447) | 0.258 | 1.52 | 0.554
PROK2 (GeneID 60675) | 0.688 | 1.82 | 0.576

Continued.
Gene | mean correlation with KSR1 profile | mean distance from KSR1 profile | KSR1 correlation, replicate 1
RAB3IL1 (GeneID 5866) | -0.51 | 2.98 | -0.489
HMGB3 (GeneID 3149) | -0.509 | 1.97 | -0.523
UGT2A3 (GeneID 79799) | 0.297 | 1.57 | 0.291
GULP1 (GeneID 51454) | 0.194 | 1.93 | 0.127
DEPDC1B (GeneID 55789) | -0.307 | 1.82 | -0.571
ERBB4 (GeneID 2066) | 0.459 | 2.75 | 0.496
HMGCS1 (GeneID 3157) | 0.0646 | 3.16 | 0.176
ERCC3 (GeneID 2071) | 0.0813 | 1.48 | -0.06
NPC1 (GeneID 4864) | 0.358 | 1.48 | 0.342
MYH4 (GeneID 4622) | -0.36 | 2.65 | -0.351
ARPC1B (GeneID 10095) | 0.581 | 1.23 | 0.507
NBL1 (GeneID 4681) | -0.377 | 1.59 | -0.338
DZIP3 (GeneID 9666) | -0.199 | 1.54 | 0.00128
CHST6 (GeneID 4166) | 0.48 | 2.13 | 0.253
TRIM16 (GeneID 10626) | -0.364 | 2.2 | -0.09
LMO2 (GeneID 4005) | -0.116 | 1.72 | 0.0911
WNT8B (GeneID 7479) | -0.124 | 2.2 | -0.386
ALPK3 (GeneID 57538) | 0.299 | 1.57 | 0.398
KIF27 (GeneID 55582) | -0.33 | 3.07 | -0.301
PTPN21 (GeneID 11099) | -0.0437 | 2.09 | -0.118
TMEM237 (GeneID 65062) | -0.144 | 2.06 | -0.246
WDCP (GeneID 80304) | 0.783 | 0.905 | 0.472
TMPRSS13 (GeneID 84000) | 0.834 | 1.16 | 0.775
ADGRE1 (GeneID 2015) | 0.812 | 0.952 | 0.826
AAAS (GeneID 8086) | -0.0112 | 2.12 | -0.183
RAX (GeneID 30062) | -0.222 | 2.04 | -0.2
RAX (GeneID 30062) | -0.137 | 2.12 | -0.438
BPNT1 (GeneID 10380) | -0.0297 | 2.71 | 0.069
FUBP3 (GeneID 8939) | 0.849 | 0.728 | 0.684
DAG1 (GeneID 1605) | 0.334 | 0.802 | 0.329
ZNHIT6 (GeneID 54680) | -0.738 | 2.57 | -0.454
HTR1B (GeneID 3351) | 0.2 | 2.53 | -0.118
ZFHX4 (GeneID 79776) | 0.506 | 2.65 | 0.552
RPRD1B (GeneID 58490) | -0.391 | 1.58 | -0.759
H3C3 (GeneID 8352) | -0.302 | 1.4 | -0.114
ANP32CP (GeneID 23520) | 0.466 | 1.1 | 0.31
ECHDC2 (GeneID 55268) | -0.0765 | 2.3 | 0.0683
SLC4A5 (GeneID 57835) | -0.514 | 3.67 | -0.543
CYLC2 (GeneID 1539) | 0.662 | 1.27 | 0.648
DYSF (GeneID 8291) | -0.367 | 2.45 | -0.24
SLC6A8 (GeneID 6535) | 0.224 | 0.912 | 0.506
DNMT3B (GeneID 1789) | -0.466 | 4.44 | -0.399
